This note sets out measurements from patent US20240309066A1, “MEANS AND METHODS FOR THE TREATMENT OF CALCIUM CRYSTAL DEPOSITION DISEASES” (UNIVERSITEIT MAASTRICHT, priority 2021, published 2024).

The data set can be described thus: Total calcium, phosphate and protein measurements in pellets of in vitro precipitates. The class given is biochemical. The note with it: total protein content determination. As to the method:
To test this, particles were allowed to form for 2 or 24 hours in the presence or absence (control) of bFetuin or the peptide according to SEQ ID NO: 1. and subsequently harvested by centrifugation, washed and dissolved in acid, followed by total calcium, phosphate and protein measurements in the pellet and the supernatant.
Quantification of deposited calcium was carried out using a calcium determination kit (Randox, London, United Kingdom) according to the manufacturer's instruction, after hydrolysis of mineral deposits in 0.1M HCl. Calcium measurements were normalized to protein content using micro DC Protein Assay (Termo Scientifc, Bleiswijk, the Netherlands). To be able to measure protein content, an equal amount of 0.1M NaOH was used to neutralize the acid and 0.1% SDS (final concentration) was added to lyse cells in the cellular calcification assays.
Quantification of deposited phosphate was carried out using a phosphate colorimetric assay (Sigma, MK030) according to manufacturer's instruction after solubilisation of precipitates in 0.1M HCL.

As for “peptide according to SEQ ID NO: 1: circular polypeptide of 30 D-amino acids LIYRQPNCDDPETEEAALVAIDYIAPHGPG, D-Leucine at position 1 linked to D-Glycine at position 30 (head-to-tail cyclic, D-amino acids; listed as Homo Sapiens)”, the “protein incorporated in the pellet” value is on record as at most 22%.

B1: bFetuin: bovine Fetuin (Sigma-Aldrich, #F2379), positive control for precipitation inhibition (protein, UniProt Q58D62 19-387, looked up)
Fetuin-B: TSPPQPAARPSSLLSLDCNSSYVLDIANDILQDINRDRKDGYVLSLNRVSDAREHRQEAGLGSLFYFTLDVLETGCHVLSRTSWKNCEVRIFHESVYGQCKAIFYINKEKRIFYLPAYNCTLRPVSQSAIIMTCPDCPSTSPYDLSNPRFMETATESLAKYNSESPSKQYSLVKITKTSSQWVFGPAYFVEYLIKESPCVKSEGSSCALESPGSVPVGICHGSLGEPQGNQGKIISVTCSFFNSQAPTPRGENATVNQRPANPSKTEELQQQNTAPTNSPTKAVPKGSVQYLPDWDKKREGSQEKDPVETFPVQLDLTTNPQGESLDVSFLFQEPMEEKVVVLPFPSKEQRSAECPGPAQKGYPFILPS
Turning to B1, the “protein incorporated in the pellet” value is “Up to 4%”.
